These results are taken from paper PMC4861423.

Sequences of proteins named here, by UniProt entry; tags and fusion partners are left off. Residues count along the entry.
UniProt Q93050: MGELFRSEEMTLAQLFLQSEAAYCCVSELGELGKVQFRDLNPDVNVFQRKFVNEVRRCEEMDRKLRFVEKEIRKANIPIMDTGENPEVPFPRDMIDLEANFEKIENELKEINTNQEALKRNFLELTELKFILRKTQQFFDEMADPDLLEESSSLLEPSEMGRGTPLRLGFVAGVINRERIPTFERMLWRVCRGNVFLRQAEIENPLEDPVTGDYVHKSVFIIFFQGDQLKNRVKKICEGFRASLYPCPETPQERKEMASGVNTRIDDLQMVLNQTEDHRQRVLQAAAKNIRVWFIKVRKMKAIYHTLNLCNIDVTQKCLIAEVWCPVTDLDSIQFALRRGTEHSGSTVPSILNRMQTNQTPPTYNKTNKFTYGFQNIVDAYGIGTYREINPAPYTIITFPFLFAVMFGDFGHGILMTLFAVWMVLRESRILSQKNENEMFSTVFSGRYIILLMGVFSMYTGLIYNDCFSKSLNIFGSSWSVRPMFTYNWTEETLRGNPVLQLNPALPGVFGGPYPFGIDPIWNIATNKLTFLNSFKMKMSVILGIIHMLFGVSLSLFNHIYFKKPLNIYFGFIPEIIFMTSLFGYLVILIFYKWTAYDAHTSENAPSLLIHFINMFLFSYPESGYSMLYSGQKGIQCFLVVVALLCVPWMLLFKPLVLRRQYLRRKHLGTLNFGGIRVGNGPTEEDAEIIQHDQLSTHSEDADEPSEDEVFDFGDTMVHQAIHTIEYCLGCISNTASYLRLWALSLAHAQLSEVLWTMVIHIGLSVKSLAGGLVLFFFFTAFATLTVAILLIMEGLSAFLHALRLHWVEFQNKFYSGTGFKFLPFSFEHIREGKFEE
UniProt Q13488: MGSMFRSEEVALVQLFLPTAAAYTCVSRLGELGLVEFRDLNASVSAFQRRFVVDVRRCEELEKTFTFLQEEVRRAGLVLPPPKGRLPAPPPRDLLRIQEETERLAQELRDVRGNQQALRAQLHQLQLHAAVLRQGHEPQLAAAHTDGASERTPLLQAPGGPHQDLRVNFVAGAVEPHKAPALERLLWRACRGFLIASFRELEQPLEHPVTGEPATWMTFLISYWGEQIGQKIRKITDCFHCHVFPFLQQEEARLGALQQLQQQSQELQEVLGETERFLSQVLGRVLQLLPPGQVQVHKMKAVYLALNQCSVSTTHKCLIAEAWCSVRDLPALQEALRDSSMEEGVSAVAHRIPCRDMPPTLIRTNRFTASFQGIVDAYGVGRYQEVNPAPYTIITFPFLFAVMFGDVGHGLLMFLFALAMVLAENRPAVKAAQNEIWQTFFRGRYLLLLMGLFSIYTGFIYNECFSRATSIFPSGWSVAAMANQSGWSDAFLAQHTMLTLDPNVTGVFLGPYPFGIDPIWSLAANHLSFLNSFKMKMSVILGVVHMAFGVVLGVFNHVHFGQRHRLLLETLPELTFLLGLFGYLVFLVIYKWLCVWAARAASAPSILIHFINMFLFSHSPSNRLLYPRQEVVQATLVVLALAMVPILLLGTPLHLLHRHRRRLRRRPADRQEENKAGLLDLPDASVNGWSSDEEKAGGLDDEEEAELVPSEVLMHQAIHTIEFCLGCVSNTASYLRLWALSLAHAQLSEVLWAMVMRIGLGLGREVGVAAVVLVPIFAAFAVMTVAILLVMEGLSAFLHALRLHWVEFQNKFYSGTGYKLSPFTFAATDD
UniProt Q15904, residues 42-470: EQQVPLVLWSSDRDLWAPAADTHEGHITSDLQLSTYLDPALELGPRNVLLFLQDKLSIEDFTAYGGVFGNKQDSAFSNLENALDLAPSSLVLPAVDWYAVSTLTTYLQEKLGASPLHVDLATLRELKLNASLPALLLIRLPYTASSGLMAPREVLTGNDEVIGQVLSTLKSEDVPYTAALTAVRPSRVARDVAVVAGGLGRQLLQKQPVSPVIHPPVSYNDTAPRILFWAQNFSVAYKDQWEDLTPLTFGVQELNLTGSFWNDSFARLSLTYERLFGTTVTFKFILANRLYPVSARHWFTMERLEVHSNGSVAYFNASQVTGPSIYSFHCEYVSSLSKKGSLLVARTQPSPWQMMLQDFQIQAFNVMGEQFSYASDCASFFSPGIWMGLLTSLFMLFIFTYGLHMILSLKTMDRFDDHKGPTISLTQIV

The target in test [1] is V-ATPase membrane subunit a isoform 1 (ATP6V0A1) (human (endogenous in PC-3)) (UniProt Q93050). The test can be described thus: co-IP; endogenous proteins of PC-3 cells solubilised in RIPA buffer (1% Nonidet P-40, 0.5% deoxycholate, 150 mM NaCl), lysate 1 mg/ml; rabbit anti-a3 antiserum or anti-a1 rabbit IgG, 4 °C, 6 h; beads washed three times with RIPA; immunoblot; pre-immune/normal rabbit serum as control. Background: Immunoblotting shows a protein as a band on a membrane.

Test [2] deals with V-ATPase membrane subunit a isoform 3 (ATP6V0A3) (human (endogenous in PC-3)) (UniProt Q13488). Described as above.

These are yes or no findings as the source states them, for the method shown. In cells and extracts the contact can be indirect. Some entries that bind do so weakly or less than the wild type.

Regarding “V-ATPase accessory protein Ac45 (ATP6AP1) (from UniProt Q15904 42-470)”, the binding result in test [1] and in test [2] was “binds” throughout.

Turning to “V-ATPase membrane subunit a isoform 1 (ATP6V0A1) (from UniProt Q93050 1-837)”, the binding entry in test [2] was “no binding”.

Consider “V-ATPase membrane subunit a isoform 3 (ATP6V0A3) (from UniProt Q13488 1-830)”, for which the binding result in test [1] was “no binding”.
